In doi:10.1101/2020.04.03.023721 one finds binding data, which are given here for one substance.

Amino acid sequences for entries named in this document (tags omitted).
UniProt P49023: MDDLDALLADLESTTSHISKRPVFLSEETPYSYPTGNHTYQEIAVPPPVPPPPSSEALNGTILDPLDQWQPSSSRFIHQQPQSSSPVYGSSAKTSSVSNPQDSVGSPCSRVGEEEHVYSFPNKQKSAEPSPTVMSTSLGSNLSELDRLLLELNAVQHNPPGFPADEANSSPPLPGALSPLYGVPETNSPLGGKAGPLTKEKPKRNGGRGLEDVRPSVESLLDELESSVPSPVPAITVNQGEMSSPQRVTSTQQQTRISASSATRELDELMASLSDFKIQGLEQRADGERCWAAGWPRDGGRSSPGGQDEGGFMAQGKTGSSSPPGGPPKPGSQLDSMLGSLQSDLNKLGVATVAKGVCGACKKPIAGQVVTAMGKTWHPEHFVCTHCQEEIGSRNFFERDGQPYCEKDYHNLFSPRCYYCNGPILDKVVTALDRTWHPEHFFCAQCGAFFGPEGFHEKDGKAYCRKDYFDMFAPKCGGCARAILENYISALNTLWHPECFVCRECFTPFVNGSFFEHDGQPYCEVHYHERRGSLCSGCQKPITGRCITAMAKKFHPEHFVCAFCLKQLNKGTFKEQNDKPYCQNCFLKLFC

No constants are given. Whether binding was seen depends on the method and setting. In cells and extracts the contact can be indirect. Some results given as binding are weak or reduced against the parent protein; the word gives no strength. Where a sequence is shown, tags or fusion partners need not be part of it.

Holding throughout (assay): co-IP
The target in one test is T1, Flag-P2X7(27-595) (UniProt Q99572).
T1 sequence: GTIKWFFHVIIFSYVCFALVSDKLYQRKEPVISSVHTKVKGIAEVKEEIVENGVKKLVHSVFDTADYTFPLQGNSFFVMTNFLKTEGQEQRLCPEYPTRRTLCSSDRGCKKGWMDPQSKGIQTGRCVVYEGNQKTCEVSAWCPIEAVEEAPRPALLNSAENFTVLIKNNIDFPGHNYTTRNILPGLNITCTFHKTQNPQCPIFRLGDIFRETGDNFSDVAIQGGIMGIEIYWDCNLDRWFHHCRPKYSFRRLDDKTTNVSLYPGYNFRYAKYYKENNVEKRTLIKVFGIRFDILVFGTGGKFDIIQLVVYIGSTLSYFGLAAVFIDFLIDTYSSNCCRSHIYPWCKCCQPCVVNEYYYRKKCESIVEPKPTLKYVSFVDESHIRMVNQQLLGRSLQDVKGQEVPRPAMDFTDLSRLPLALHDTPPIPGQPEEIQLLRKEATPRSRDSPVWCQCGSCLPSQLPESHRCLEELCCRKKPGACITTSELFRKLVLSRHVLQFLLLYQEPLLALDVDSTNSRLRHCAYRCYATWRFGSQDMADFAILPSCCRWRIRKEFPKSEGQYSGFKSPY

In test [1] the target is T2, Flag-UPS13(301-863) (human) (UniProt Q92995).
T2 sequence: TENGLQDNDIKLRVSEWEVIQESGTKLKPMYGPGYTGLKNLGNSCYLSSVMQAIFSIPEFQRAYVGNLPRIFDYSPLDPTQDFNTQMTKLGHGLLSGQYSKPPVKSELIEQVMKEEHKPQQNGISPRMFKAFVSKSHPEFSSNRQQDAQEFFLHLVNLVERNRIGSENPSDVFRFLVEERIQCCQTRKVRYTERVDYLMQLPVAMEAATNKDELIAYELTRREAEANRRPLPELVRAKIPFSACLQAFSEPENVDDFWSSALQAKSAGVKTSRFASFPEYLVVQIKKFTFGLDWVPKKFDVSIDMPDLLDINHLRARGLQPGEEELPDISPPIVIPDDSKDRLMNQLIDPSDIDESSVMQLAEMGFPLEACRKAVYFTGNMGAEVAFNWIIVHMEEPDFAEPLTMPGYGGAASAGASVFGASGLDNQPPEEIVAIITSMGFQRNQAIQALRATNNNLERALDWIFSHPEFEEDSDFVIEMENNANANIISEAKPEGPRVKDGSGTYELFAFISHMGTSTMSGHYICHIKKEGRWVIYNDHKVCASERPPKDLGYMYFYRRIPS

A further test deals with T3, Flag-P2X7 (UniProt Q99572).
T3 sequence: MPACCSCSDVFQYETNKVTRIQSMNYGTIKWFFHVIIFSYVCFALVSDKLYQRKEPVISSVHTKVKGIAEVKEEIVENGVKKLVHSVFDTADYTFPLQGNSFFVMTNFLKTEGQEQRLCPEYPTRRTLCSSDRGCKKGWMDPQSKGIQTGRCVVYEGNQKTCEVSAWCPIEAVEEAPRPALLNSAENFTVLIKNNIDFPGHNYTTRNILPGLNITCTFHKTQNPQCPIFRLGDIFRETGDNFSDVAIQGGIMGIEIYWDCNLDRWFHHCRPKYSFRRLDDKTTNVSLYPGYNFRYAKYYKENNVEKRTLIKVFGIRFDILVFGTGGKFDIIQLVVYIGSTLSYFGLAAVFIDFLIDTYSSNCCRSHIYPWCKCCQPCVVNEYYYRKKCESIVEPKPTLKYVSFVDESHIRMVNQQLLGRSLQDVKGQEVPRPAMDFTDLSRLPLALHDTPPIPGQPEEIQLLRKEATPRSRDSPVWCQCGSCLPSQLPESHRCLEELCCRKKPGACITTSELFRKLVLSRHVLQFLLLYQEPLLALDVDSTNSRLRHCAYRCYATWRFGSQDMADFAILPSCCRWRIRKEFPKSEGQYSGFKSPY

Another test deals with T4, Flag-P2X7(26-595) (UniProt Q99572).
T4 sequence: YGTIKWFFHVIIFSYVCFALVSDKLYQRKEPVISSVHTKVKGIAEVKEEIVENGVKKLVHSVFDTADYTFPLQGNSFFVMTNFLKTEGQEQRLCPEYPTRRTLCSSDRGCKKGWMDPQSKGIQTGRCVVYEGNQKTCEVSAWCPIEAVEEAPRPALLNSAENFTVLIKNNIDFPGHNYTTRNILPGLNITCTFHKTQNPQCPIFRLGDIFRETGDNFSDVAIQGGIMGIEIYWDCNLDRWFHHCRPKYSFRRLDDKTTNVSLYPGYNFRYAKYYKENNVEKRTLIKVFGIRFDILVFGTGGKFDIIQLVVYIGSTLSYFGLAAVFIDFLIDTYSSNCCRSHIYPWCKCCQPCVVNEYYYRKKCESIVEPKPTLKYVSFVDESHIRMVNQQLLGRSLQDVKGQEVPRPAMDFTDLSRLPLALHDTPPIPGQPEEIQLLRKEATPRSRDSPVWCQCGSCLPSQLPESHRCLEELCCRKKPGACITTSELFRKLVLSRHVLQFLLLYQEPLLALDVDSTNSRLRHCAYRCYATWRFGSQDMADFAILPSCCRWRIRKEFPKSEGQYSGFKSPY

On to HA-Paxillin (from UniProt P49023 1-591), for which the binding entry with Flag-P2X7(27-595) is given as “binds”; in test [1], “no binding”; with Flag-P2X7, “binds”; in the test with Flag-P2X7(26-595), “binds”.
